No constants are given. Whether binding was seen depends on the method and setting. Some results given as binding are weak or reduced against the parent protein; the word gives no strength. Values belong to the binder of their own block, whether it stands above or below them.
Tests used:
[1] = biological target: T1, polypeptide of SEQ ID NO: 37 (CAPRIN-1 partial sequence) (human); test: ELISA on immobilised synthetic peptides
T1 sequence (peptide): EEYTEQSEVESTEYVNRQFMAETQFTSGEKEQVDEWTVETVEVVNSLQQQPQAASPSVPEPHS

[2] = biological target: dog CAPRIN-1 in dog breast cancer tissue (dog); test: immunohistochemical staining of frozen dog breast cancer tissue sections

binding [1]: binds
binding [2]: binds
B1: anti-CAPRIN-1 mouse monoclonal antibody #6 (antibody, V domains shown)
VH: DAELVKPGASVKISCKASGYTFTDHSIHWVQQKPEQGLEWIGYISPGNGNIKYNEKFKGKATLTADKSSSTAYMQLNSLTSEDSAVYFCKRSLGRGGPYYFDYWGQGTTVTVSS
VL: DIVLTQAAPSLPVTPGESVSISCRSSKSLLHSNGNTYLYWFLQRPGQSPQLLIYRMSNLASGVPDRFSGSGSGTAFTLRISRVEAEDVGVYYCMQHREYPVTFGSGPN

binding [1]: binds
binding [2]: binds
B2: human-chicken chimeric antibody #1 having the chicken monoclonal antibody #1 variable region (antibody, V domains shown, not shown: a dimerising Fc or GST; large carriers)
VH: AVTLDESGGGLQMSRGGLSLVCKASGFDFSSYQMNWIRQAPGKGLEFVAAINKFGNSTGHGAAVKGRVTISRDNGQSTVRLQLNNLRAEDTAIYFCTKHAYGYCGSGTWCAAGEIDAWGHGTEVIVSS
VL: QAASTQPSSVSANPGETVEITCSGGGSYSYGWFQQKSPGSAPVTVIYYNNKRPSDIPSRFSGSKSGSTGTLTITGVQADDEAVYYCGSGDSTDTAVFGAGTTLTVLG

binding [1]: binds
binding [2]: binds
B3: anti-CAPRIN-1 mouse monoclonal antibody #5 (antibody, V domains shown)
VH: GAELVRSGASVKMSCKASGYSFTDYNMYWVKQTPGQGLEWIGYIYPGNGGTNYNQKFKGKATLTADTSSSTAYMQISSLTSEDSAVYFCARDYDDGGYAMDYWGQGTTVTVSS
VL: DIQMTQSPASLSASVGETVTITCRASGNIHNYLTWYQQKQGKSPQLLVYNAKTLADGVPSRFSGSGSGTQYSLKINRLQPEDFGSYYCQHFWNIPWTFGGGTKLNSR

Reference: patent US20120301476A1
